Earlier results as cited in publication PMC11388056 (Clinical and Translational Science, 2024).

Columns and labels:
Details in all cases: in vitro, at clinically relevant concentrations; cited from earlier work
[1] = tested on: organic anion transporter [OAT]1
OAT3 = tested on: OAT3
[2] = tested on: organic cation transporter 2
OATP1B1 = tested on: OATP1B1
OATP1B3 = tested on: OATP1B3
MATE1 = tested on: MATE1
MATE2K = tested on: MATE2K

C=CC(=O)N1CC[C@H](n2nc(C#Cc3cc(OC)cc(OC)c3)c3c(N)ncnc32)C1 [futibatinib]
does not inhibit: inhibition of OAT1 [1] | inhibition of OAT3 (OAT3) | inhibition of organic cation transporter 2 [2] | inhibition of OATP1B1 (OATP1B1) | inhibition of OATP1B3 (OATP1B3) | inhibition of MATE1 (MATE1) | inhibition of MATE2K (MATE2K)
